Sequences and labels used below:
B1: HC-17/LC-17 (Ab17) (antibody, IgG1, V domains shown)
VH: QIQLVQSGPELRKPGESVKISCKASGYTFTDYAMYWVKQAPGKGLKWMGWINTYTGKPTYADDFKGRFVFSLEASANTANLQISNLKNEDTATYFCARARGLVDDYVMDAWGQGTSVTVSS
VL: SYELIQPPSASVTLGNTVSLTCVGDELSKRYAQWYQQKPDKTIVSVIYKDSERPSGISDRFSGSSSGTTATLTIHGTLAEDEADYYCLSTYSDDNLPVFGGGTKLTVL
notes: From rat immunization/hybridoma; purified IgG in BLI; also called 017
B2: HC-21/LC-21 (Ab21) (antibody, IgG1, V domains shown)
VH: QIQLVQSGPELKKPGESVKISCKASGYTFTDYAVYWVIQAPGKGLKWMGWINTYTGKPTYADDFKGRFVFSLETSASTANLQISNLKNEDTATYFCARGAGMTKDYVMDAWGRGVLVTVS
VL: B1 VL with G56D
notes: From rat immunization/hybridoma; purified IgG in BLI; also called 021
B3: HC-27/LC-27 (Ab27) (antibody, IgG1, V domains shown)
VH: EVQLVESGGGLVQPGRSMKLSCKASGFTFSNYDMAWVRQAPTRGLEWVASISYDGITAYYRDSVKGRFTISRENAKSTLYLQLVSLRSEDTATYYCTTEGGYVYSGPHYFDYWGQGVMVTVSS
VL: DIQMTQSPSSMSVSLGDTVTITCRASQDVGIFVNWFQQKPGRSPRRMIYRATNLADGVPSRFSGSRSGSDYSLTISSLESEDVADYHCLQYDEFPRTFGGGTKLELK
notes: From rat immunization/hybridoma; purified IgG in BLI; also called 027
B4: HC-25/LC-25 (Ab25) (antibody, IgG1, V domains shown)
VH: QIQLVQSGPELKKPGESVKISCKASGYTFTDYAIHWVKQAPGQGLRWMAWINTETGKPTYADDFKGRFVFSLEASASTAHLQISNLKNEDTATFFCAGGSHWFAYWGQGTLVTVSS
VL: SYELIQPPSASVTLENTVSITCSGDELSNKYAHWYQQKPDKTILEVIYNDSERPSGISDRFSGSSSGTTAILTIRDAQAEDEADYYCLSTFSDDDLPIFGGGTKLTVL
notes: From rat immunization/hybridoma; purified IgG in BLI; also called 025
B5: HC-22/LC-22 (Ab22) (antibody, IgG1, V domains shown)
VH: QVQLKESGPGLVQPSQTLSLTCTVSGFSLTSYLVHWVRQPPGKTLEWVGLMWNDGDTSYNSALKSRLSISRDTSKSQVFLKMHSLQAEDTATYYCARESNLGFTYWGHGTLVTVSS
VL: DIQMTQSPASLSASLEEIVTITCKASQGIDDDLSWYQQKPGKSPQLLIYDVTRLADGVPSRFSGSRSGTQYSLKISRPQVADSGIYYCLQSYSTPYTFGAGTKLELK
notes: From rat immunization/hybridoma; purified IgG in BLI; also called 022
B6: HC-18/LC-18 (Ab18) (antibody, IgG1, V domains shown)
VH: EVQLQQYGAELGKPGTSVRLSCKVSGYNIRNTYIHWVNQRPGEGLEWIGRIDPTNGNTISAEKFKTKATLTADTSSHTAYLQFSQLKSDDTAIYFCALNYEGYADYWGQGVMVTGSS
VL: DIQMTQSPSFLSASVGDRVTINCKASQNINKYLNWYQQKVGEAPKRLIFKTNSLQTGIPSRFSGSGSGTDYTLTISSLQTEDVATYFCFQYNIGYTFGAGTKVELK
notes: From rat immunization/hybridoma; purified IgG in BLI; also called 018
B7: HC-20/LC-20 (Ab20) (antibody, IgG1, V domains shown)
VH: EVQLQQYGAELGKPGTSVRLSCKLSGYKIRNTYIHWVNQRPGKGLEWIGRIDPANGNTIYAEKFKSKVTLTADTSSNTAYMQLSQLKSDDTALYFCAMNYEGYEDYWGQGVMVTVSS
VL: B6 VL with R18S, V40L, F49H, N52D, T80P, N92K, I93S, Y95F, T96M, V103L
notes: From rat immunization/hybridoma; purified IgG in BLI; also called 020
B8: HC-28/LC-28 (Ab28) (antibody, IgG1, V domains shown)
VH: B7 VH with L24V
VL: B6 VL with R18S, V40L, F49H, T56P, I58F, T80P, T85A, I93S, Y95F, V103L
notes: From rat immunization/hybridoma; purified IgG in BLI; also called 028
B9: HC-23/LC-23 (Ab23) (antibody, IgG1, V domains shown)
VH: B6 VH with N38H, T66S, H77N, L81M, L98M, G115V
VL: B6 VL with V19L, V40L, T80P, Y95F, V103L
notes: From rat immunization/hybridoma; purified IgG in BLI; also called 023
B10: HC-19/LC-19 (Ab19) (antibody, IgG1, V domains shown)
VH: EVQLQESGPGLVKPSQSLSLTCSVTGYSISSNYRWNWIRKFPGNKVEWMGYINSAGSTNYNPSLKSRISMTRDTSKNQFFLQVNSVTTEDTATYYCARSLRGYITDYSGFFDYWGQGVMVTVSS
VL: DIRMTQSPASLSASLGETVNIECLASEDIFSDLAWYQQKPGKSPQLLIYNANSLQNGVPSRFSGSGSGTRYSLKINSLQSEDVATYFCQQYKNYPLTFGSGTKLEIK
notes: From rat immunization/hybridoma; purified IgG in BLI; also called 019
B11: HC-24/LC-24 (Ab24) (antibody, IgG1, V domains shown)
VH: EVQLVESGGGLVQSGRSLKLSCAASGFTVSDYYMAWVRQAPTKGLEWVATINYDGSTTYHRDSVKGRFTISRDNAKSTLYLQMDSLRSEDTATYYCARHGDYGYHYGAYYFDYWGQGVMVTVSS
VL: DIVLTQSPALAVSLGQRATISCRASQTVSLSGYNLIHWYQQRTGQQPKLLIYRASNLAPGIPARFSGSGSGTDFTLTISPVQSDDIATYYCQQSRESWTFGGGTNLEMK
notes: From rat immunization/hybridoma; purified IgG in BLI; also called 024

Positions count from the first letter of the chain named. No constants are given. Whether binding was seen depends on the method and setting. Binding can be weak; no strength is given.

The target in this assay is cynomologus monkey CD117 ectodomain (aa26-521; F6V858) expressed on cell lines (cynomolgus monkey). The assay is described as follows: flow cytometry on cell line expressing the ectodomain (hybridoma screening).
For B1, the binding entry was “binds”.

As for B2, the binding result is reported as “binds”. In the case of B3 it was “binds”; in that of B4, “binds”; in that of B5, “binds”.

For the molecule B6, the binding result is on record as “binds”. As for B7, the binding result was “binds”. For B8, the binding result was “binds”. In the case of B9 it was “binds”.

On to B10, for which the binding entry is reported as “binds”. The value for B11 was “binds”.

The values above are taken from US20240360238A1 (MAGENTA THERAPEUTICS, published 2024).
